Laboratory results: PubChem BioAssay AID1159584 (Peter MacCallum Cancer Centre, 2016)
Aim: 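Knock-downs that harm CDH1-null cells more than parental MCF10A cells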 (primary screen). System: human MCF10A breast epithelial cells, parental and CDH1-null. Reagents: siRNA against human genes. Read-out: 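ATP luminescence (CellTiter-Glo) viability per line relative to mean mock wells over all plates, and the ratio of CDH1-null to parental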. Reading the numbers: CDH1-null / parental viability ratio: higher = CDH1-null cells survive relatively better than parental; CDH1-null viability vs mock: higher = more viable CDH1-null cells; parental viability vs mock: higher = more viable parental cells.
The deposit covers about 18,000 reagents; this is an unselected part. Not stated in the record: the amount of reagent, the time to read-out.

| Target gene | CDH1-null / parental viability ratio | CDH1-null viability vs mock (fraction of mock) | parental viability vs mock (fraction of mock) |
| --- | --- | --- | --- |
| ALDH18A1 | 0.93 | 0.89 | 0.96 |
| OTUD7B | 0.92 | 0.92 | 1 |
| AMN1 | 0.74 | 0.58 | 0.78 |
| STPG1 | 0.83 | 0.6 | 0.72 |
| SLC27A4 | 0.82 | 0.72 | 0.88 |
| B3GAT1 | 0.76 | 0.25 | 0.33 |
| ERLIN2 | 1.18 | 0.59 | 0.5 |
| TNFSF11 | 1.12 | 0.86 | 0.77 |
| TAS2R39 | 0.96 | 0.7 | 0.73 |
| KIF20B | 1.03 | 1.15 | 1.12 |
| TARDBP | 1.21 | 0.94 | 0.78 |
| PINK1 | 1.34 | 0.95 | 0.71 |
| ASMTL | 0.97 | 0.56 | 0.58 |
| KRTCAP3 | 0.96 | 0.88 | 0.92 |
| DPT | 0.86 | 0.57 | 0.66 |
| WT1-AS | 0.84 | 0.61 | 0.73 |
| OR6C70 | 0.75 | 0.66 | 0.88 |

Next part; the last 4 above are carried over.
| Target gene | CDH1-null / parental viability ratio | CDH1-null viability vs mock (fraction of mock) | parental viability vs mock (fraction of mock) |
| --- | --- | --- | --- |
| KRTCAP3 | 0.96 | 0.88 | 0.92 |
| DPT | 0.86 | 0.57 | 0.66 |
| WT1-AS | 0.84 | 0.61 | 0.73 |
| OR6C70 | 0.75 | 0.66 | 0.88 |
| AIPL1 | 0.82 | 0.74 | 0.9 |
| OR2T5 | 1.04 | 0.96 | 0.92 |
| SH3BGRL | 0.9 | 0.84 | 0.93 |
| FCSK | 0.86 | 0.72 | 0.84 |
| ADAM29 | 1.09 | 0.48 | 0.44 |
| SLC10A4 | 0.83 | 0.76 | 0.92 |
| ANGPT2 | 0.93 | 0.78 | 0.84 |
| TIMM50 | 1.26 | 1.03 | 0.82 |
| ATP2A3 | 1 | 1.03 | 1.03 |
| ZFP82 | 1.07 | 0.74 | 0.69 |
| KLHL35 | 0.99 | 0.83 | 0.84 |
